PubChem BioAssay AID1259405, NCATS – 2018

- Screen: 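Silenced genes that increase secreted GFP made by CHO cells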 (primary screen)
- Cell system: Chinese hamster CHO-K1 ovary cells with stable secreted eGFP expression
- Reagent: single siRNA against mouse genes, 0.8 pmol siRNA per well (2 µl of 400 nM stock)
- Time to read-out: 3 days
- Measurement: 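Per-well intracellular GFP measured by laser scanning cytometry, plus viability from ATP luminescence, each relative to plate median of non-targeting control wells, in %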
- Scale: GFP, % of control: higher = more GFP per well, higher productivity; viability (ATP), % of control: higher = more viable cells (more ATP)
- Active means: 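a knock-down is called active if GFP reaches 120% or more of non-targeting control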
The deposit covers about 50,000 reagents; this is an unselected part. About 4,000 of them (8%) count as active. 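Mouse siRNA library applied to hamster cells; one well for each siRNA.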 Entries without a mark were called inactive. Reagents against one gene are numbered here. Reagent sequences are not shown.

gene | reagent no. | GFP, % of control | viability (ATP), % of control
Sall3 | 1 | 74 | 77
Sall3 | 2 | 44.1 | 42.5
Upk3b | 1 | 38.5 | 41.8
Upk3b | 2 | 83 | 86.3
Upk3b | 3 | 54.8 | 78.4
Trp73 | 1 | 89.7 | 96.2
Trp73 | 2 | 106 | 109
Trp73 | 3 | 80.6 | 84.2
Cdkn2aip | 1 | 121 (active) | 100
Cdkn2aip | 2 | 88.3 | 87.8
Cdkn2aip | 3 | 90.9 | 69.9
C130026L21Rik | 1 | 70.8 | 59.8
C130026L21Rik | 2 | 64.4 | 70.7
C130026L21Rik | 3 | 136 (active) | 154
Map3k7 | 1 | 92.2 | 99.3
Galr3 | 1 | 76.7 | 37.3
Galr3 | 2 | 71.8 | 82
Galr3 | 3 | 67.2 | 61.9
Prelid3b | 1 | 76.4 | 85
Prelid3b | 2 | 65.1 | 46.3
Prelid3b | 3 | 84.1 | 86.3
Cltc | 1 | 95.3 | 114
Cltc | 2 | 69.8 | 63.3
Or4p22 | 1 | 58.2 | 57.4
Or4p22 | 2 | 73.6 | 83.5
Or4p22 | 3 | 110 | 88.1
Sh2b2 | 1 | 167 (active) | 83.3
Sh2b2 | 2 | 80.6 | 77.9
Sh2b2 | 3 | 64 | 47.8
Ogfod3 | 1 | 64.2 | 59.3
Ogfod3 | 2 | 78.4 | 95.2
Ogfod3 | 3 | 72 | 98.6
Slc5a6 | 1 | 52.9 | 102
Slc5a6 | 2 | 74.6 | 70.2
Slc5a6 | 3 | 81 | 85.1
Coil | 1 | 67 | 103
Coil | 2 | 202 (active) | 82.9
Coil | 3 | 96.3 | 96.1
Slc5a3 | 1 | 176 (active) | 101
Slc5a3 | 2 | 66.1 | 56.9
Slc5a3 | 3 | 103 | 81.8
Farsb | 1 | 84.3 | 89.3
Farsb | 2 | 170 (active) | 136
Farsb | 3 | 83.4 | 77.7

9 entries already listed, ordered by “viability (ATP), % of control”, low to high.
gene | reagent no. | GFP, % of control | viability (ATP), % of control
Prelid3b | 2 | 65.1 | 46.3
Or4p22 | 1 | 58.2 | 57.4
Galr3 | 3 | 67.2 | 61.9
Cltc | 2 | 69.8 | 63.3
Galr3 | 2 | 71.8 | 82
Or4p22 | 2 | 73.6 | 83.5
Prelid3b | 1 | 76.4 | 85
Prelid3b | 3 | 84.1 | 86.3
Cltc | 1 | 95.3 | 114

The results go on:
gene | reagent no. | GFP, % of control | viability (ATP), % of control
Zfp689 | 1 | 63.6 | 53.1
Zfp689 | 2 | 65.9 | 59.1
Zfp689 | 3 | 111 | 101
Ppbp | 1 | 58 | 75.9
Ppbp | 2 | 66.8 | 52.4
Ppbp | 3 | 69.3 | 65.3
Slfnl1 | 1 | 83.7 | 86.8
Slfnl1 | 2 | 68 | 82.5
Slfnl1 | 3 | 105 | 114
Fiz1 | 1 | 58 | 71.1
Fiz1 | 2 | 65.5 | 68.1
Fiz1 | 3 | 105 | 104
Or5w1 | 1 | 104 | 61.1
Or5w1 | 2 | 79.3 | 63.5
Or5w1 | 3 | 135 (active) | 128
1700006J14Rik | 1 | 86.8 | 102
1700006J14Rik | 2 | 80 | 80
1700006J14Rik | 3 | 104 | 50.2
Papolg | 1 | 76.1 | 77.3
Papolg | 2 | 121 (active) | 94.7
Esd | 1 | 111 | 82.7
Esd | 2 | 99.4 | 64.9
Esd | 3 | 80.3 | 89.9
Golph3l | 1 | 83.2 | 83.3
Golph3l | 2 | 78 | 45.8
Golph3l | 3 | 47.5 | 39.8
Cpne4 | 1 | 86.6 | 96.6
Cpne4 | 2 | 88.1 | 88.8
Nbeal1 | 1 | 76.9 | 92.2
Nbeal1 | 2 | 104 | 77.5
Nbeal1 | 3 | 91.9 | 81.2
Or9a2 | 1 | 30.7 | 26.1
Or9a2 | 2 | 68 | 79.5
Or9a2 | 3 | 50.6 | 74.9
Clec16a | 1 | 88.2 | 100
Clec16a | 2 | 82.3 | 36.8
Clec16a | 3 | 105 | 101
Rgs16 | 1 | 85.6 | 90
Rgs16 | 2 | 58.9 | 53.7
Rgs16 | 3 | 76.5 | 48.8
Klf12 | 1 | 64.4 | 72.1
Klf12 | 2 | 65.2 | 86.8
Klf12 | 3 | 79.4 | 87.5
Mark4 | 1 | 105 | 74.9
Mark4 | 2 | 69.8 | 62.5
Psmc6 | 1 | 51.4 | 18.5
Psmc6 | 2 | 51.7 | 30.3
Psmc6 | 3 | 48.2 | 24
Mogat1 | 1 | 95.4 | 83.3
Mogat1 | 2 | 95.5 | 136
Mogat1 | 3 | 79.7 | 97.5
Or9q1 | 1 | 102 | 64.4
Or9q1 | 2 | 89.1 | 97.9
Or9q1 | 3 | 56.5 | 56.8
Dtx3 | 1 | 88.2 | 73
Dtx3 | 2 | 78.9 | 97.7
Or4c3d | 1 | 105 | 72
Or4c3d | 2 | 120 (active) | 70
Or4c3d | 3 | 56.5 | 80.1
Apba1 | 1 | 52.2 | 97.9
Apba1 | 2 | 99.7 | 82
Mxi1 | 1 | 88.5 | 78.2
Mxi1 | 2 | 60.4 | 76.9
Mxi1 | 3 | 57.1 | 86.4
